Experimental data as given in the supplement of paper PMC4604168 (melanoma cell lines).
The list shows a part of the results. Many values rest on one well or one pass, so single values are uncertain.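 Imaging used 1,536-well plates; nuclei positive for cleaved PARP by antibody were divided by total DNA-stained nuclei to yield the apoptosis fraction. Doses for screening kept most cells viable, and cell lines differ markedly in resting and induced cleaved-PARP levels.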

Assays:
Experiment in all cases: cleaved PARP positive nuclei fraction relative to DMSO control; melanoma cells; higher = more apoptosis
Conditions in all cases: library dose: low library concentration; 72 h
[1] = test system: 501Mel
[2] = test system: A101D
[3] = test system: A2058
[4] = test system: A375
[5] = test system: C32
[6] = test system: CBRC008 (line from a melanoma biopsy)
[7] = test system: CBRC014 (line from a melanoma biopsy)
[8] = test system: CBRC016 (line from a melanoma biopsy)
[9] = test system: CBRC017 (line from a melanoma biopsy)

Compound | cleaved PARP positive nuclei fraction [1] | cleaved PARP positive nuclei fraction [2] | cleaved PARP positive nuclei fraction [3] | cleaved PARP positive nuclei fraction [4] | cleaved PARP positive nuclei fraction [5] | cleaved PARP positive nuclei fraction [6] | cleaved PARP positive nuclei fraction [7] | cleaved PARP positive nuclei fraction [8] | cleaved PARP positive nuclei fraction [9]
Cc1cc(Nc2cc(N3CCN(C)CC3)nc(Sc3ccc(NC(=O)C4CC4)cc3)n2)n[nH]1 [Tozasertib] + C[C@@H](Oc1cc(-c2cnn(C3CCNCC3)c2)cnc1N)c1c(Cl)ccc(F)c1Cl [Crizotinib] (first compound 0.006 µM, partner dose 0.2 µM) | 98.2% | 92.2% | 224% | 37% | 83.8% | 90.5% | 97.6% | 102% | 75.1%
N#CC[C@H](C1CCCC1)n1cc(-c2ncnc3[nH]ccc23)cn1 [ruxolitinib] + Clc1ccc(Nc2nnc(Cc3ccncc3)c3ccccc23)cc1 [vatalanib] (first compound 1 µM, partner dose 2 µM) | 104% | 90.5% | 71.8% | 220% | 80.1% | 145% | 126% | 307% | 141%
O=C(Nc1cc(C(F)(F)F)cc(C(F)(F)F)c1)c1cc(Cl)ccc1O + CC(C)C[C@H](NC(=O)[C@H](Cc1ccccc1)NC(=O)c1cnccn1)B(O)O [Bortezomib] (first compound 0.016 µM, partner dose 0.001 µM) | 122% | 108% | 158% | 105% | 88% | 407% | 114% | 107% | 256%
Cc1ccc(Nc2nccc(N(C)c3ccc4c(C)n(C)nc4c3)n2)cc1S(N)(=O)=O [Pazopanib] + Cn1sc(=O)n(Cc2ccccc2)c1=O [TDZD-8] (first compound 0.4 µM, partner dose 0.4 µM) | 71.8% | 146% | 60.6% | 43.2% | 145% | 42.8% | 97.7% | 120% | 93.1%
O=C(Nc1cc(C(F)(F)F)cc(C(F)(F)F)c1)c1cc(Cl)ccc1O + NC(=O)c1ccc(N(C(N)=O)c2c(F)cccc2F)nc1-c1ccc(F)cc1F [VX702] (first compound 0.016 µM, partner dose 0.4 µM) | 60% | 170% | 64.4% | 82.3% | 71.7% | 97.2% | 95.9% | 191% | 124%
CCCCCCCCCCCCCCCCCCOP(=O)([O-])OC1CC[N+](C)(C)CC1 [Perifosine] + NC(=O)c1ccc(N(C(N)=O)c2c(F)cccc2F)nc1-c1ccc(F)cc1F [VX702] (first compound 0.4 µM, partner dose 0.4 µM) | 88.4% | 31.4% | 132% | 771% | 71.6% | 78.9% | 93.1% | 80.4% | 107%
N#CC[C@H](C1CCCC1)n1cc(-c2ncnc3[nH]ccc23)cn1 [ruxolitinib] + CO[C@H]1C[C@@H]2CC[C@@H](C)[C@@](O)(O2)C(=O)C(=O)N2CCCC[C@H]2C(=O)O[C@H]([C@H](C)C[C@@H]2CC[C@@H](OCCO)[C@H](OC)C2)CC(=O)[C@H](C)/C=C(\C)[C@@H](O)[C@@H](OC)C(=O)[C@H](C)C[C@H](C)/C=C/C=C/C=C/1C [everolimus] (first compound 1 µM, partner dose 0.02 µM) | 163% | 165% | 97.6% | 782% | 45.8% | 106% | 90.5% | 95.5% | 112%
COc1cc([C@@H]2c3cc4c(cc3[C@@H](O[C@@H]3O[C@@H]5CO[C@@H](C)O[C@H]5[C@H](O)[C@H]3O)[C@H]3COC(=O)[C@H]23)OCO4)cc(OC)c1O [etoposide] + Cn1sc(=O)n(Cc2ccccc2)c1=O [TDZD-8] (first compound 0.02 µM, partner dose 0.4 µM) | 146% | 44.3% | 95.3% | 68.3% | 80.1% | 90.3% | 71.1% | 103% | 94%
O=c1[nH]nc(Sc2ncc([N+](=O)[O-])s2)n1-c1ccc2c(c1)OCCO2 + Nc1ccn([C@@H]2O[C@H](CO)[C@@H](O)C2(F)F)c(=O)n1 [gemcitabine] (first compound 0.2 µM, partner dose 0.0004 µM) | 74.5% | 43.1% | 192% | 155% | 83% | 86.2% | 125% | 384% | 280%
Cc1cc(Nc2cc(N3CCN(C)CC3)nc(Sc3ccc(NC(=O)C4CC4)cc3)n2)n[nH]1 [Tozasertib] + Nc1ccn([C@@H]2O[C@H](CO)[C@@H](O)C2(F)F)c(=O)n1 [gemcitabine] (first compound 0.006 µM, partner dose 0.0004 µM) | 75.9% | 92.1% | 41% | 38.3% | 71.3% | 59.3% | 97.5% | 258% | 138%
CC[C@]1(O)C[C@H]2CN(CCc3c([nH]c4ccccc34)[C@@](C(=O)OC)(c3cc4c(cc3OC)N(C=O)[C@H]3[C@@](O)(C(=O)OC)[C@H](OC(C)=O)[C@]5(CC)C=CCN6CC[C@]43[C@@H]65)C2)C1 [vincristine] + Nc1nc(F)nc2c1ncn2[C@@H]1O[C@H](CO)[C@@H](O)[C@@H]1O [fludarabine] (first compound 0.0001 µM, partner dose 0.2 µM) | 11200% | 159% | 904% | 4430% | 116% | 161% | 104% | 106% | 99.6%
Cc1cn(-c2cc(NC(=O)c3ccc(C)c(Nc4nccc(-c5cccnc5)n4)c3)cc(C(F)(F)F)c2)cn1 [nilotinib] + CN1CCN(c2ccc3nc(-c4c(N)c5c(F)cccc5[nH]c4=O)[nH]c3c2)CC1 [Dovitinib] (first compound 0.2 µM, partner dose 0.1 µM) | 202% | 82% | 156% | 110% | 65.7% | 23.8% | 87.2% | 51.6% | 80.1%
O=c1[nH]nc(Sc2ncc([N+](=O)[O-])s2)n1-c1ccc2c(c1)OCCO2 + CC(=O)c1c(C)c2cnc(Nc3ccc(N4CCNCC4)cn3)nc2n(C2CCCC2)c1=O [palbociclib] (first compound 0.2 µM, partner dose 0.04 µM) | 74.4% | 55.3% | 47.6% | 93.8% | 173% | 68.5% | 86.4% | 80.3% | 129%
Cc1cn(-c2cc(NC(=O)c3ccc(C)c(Nc4nccc(-c5cccnc5)n4)c3)cc(C(F)(F)F)c2)cn1 [nilotinib] + C[C@@H](Oc1cc(-c2cnn(C3CCNCC3)c2)cnc1N)c1c(Cl)ccc(F)c1Cl [Crizotinib] (first compound 0.2 µM, partner dose 0.2 µM) | 81.9% | 81.9% | 109% | 28.3% | 63.4% | 30.2% | 114% | 61.9% | 74.2%
Cc1ccc(Nc2nccc(N(C)c3ccc4c(C)n(C)nc4c3)n2)cc1S(N)(=O)=O [Pazopanib] + CCN(CC)CCNC(=O)c1c(C)[nH]c(/C=C2\C(=O)Nc3ccc(F)cc32)c1C [sunitinib] (first compound 0.4 µM, partner dose 0.4 µM) | 104% | 90.4% | 80.8% | 269% | 74.3% | 110% | 108% | 72.6% | 88.1%
N#CC[C@H](C1CCCC1)n1cc(-c2ncnc3[nH]ccc23)cn1 [ruxolitinib] + CC[C@]1(O)C[C@H]2CN(CCc3c([nH]c4ccccc34)[C@@](C(=O)OC)(c3cc4c(cc3OC)N(C=O)[C@H]3[C@@](O)(C(=O)OC)[C@H](OC(C)=O)[C@]5(CC)C=CCN6CC[C@]43[C@@H]65)C2)C1 [vincristine] (first compound 1 µM, partner dose 0.0001 µM) | 58.1% | 44% | 93.5% | 139% | 83% | 174% | 91.6% | 81.4% | 182%
COc1cc([C@@H]2c3cc4c(cc3[C@@H](O[C@@H]3O[C@@H]5CO[C@@H](C)O[C@H]5[C@H](O)[C@H]3O)[C@H]3COC(=O)[C@H]23)OCO4)cc(OC)c1O [etoposide] + CO[C@H]1C[C@@H]2CC[C@@H](C)[C@@](O)(O2)C(=O)C(=O)N2CCCC[C@H]2C(=O)O[C@H]([C@H](C)C[C@@H]2CC[C@@H](OCCO)[C@H](OC)C2)CC(=O)[C@H](C)/C=C(\C)[C@@H](O)[C@@H](OC)C(=O)[C@H](C)C[C@H](C)/C=C/C=C/C=C/1C [everolimus] (first compound 0.02 µM, partner dose 0.02 µM) | 549% | 109% | 48.9% | 601% | 87.6% | 234% | 105% | 65.7% | 113%
Cc1cc(Nc2cc(N3CCN(C)CC3)nc(Sc3ccc(NC(=O)C4CC4)cc3)n2)n[nH]1 [Tozasertib] + Cn1sc(=O)n(Cc2ccccc2)c1=O [TDZD-8] (first compound 0.006 µM, partner dose 0.4 µM) | 55.8% | 91.5% | 113% | 69.8% | 202% | 70.1% | 682% | 89.5% | 100%
CC[C@]1(O)C[C@H]2CN(CCc3c([nH]c4ccccc34)[C@@](C(=O)OC)(c3cc4c(cc3OC)N(C=O)[C@H]3[C@@](O)(C(=O)OC)[C@H](OC(C)=O)[C@]5(CC)C=CCN6CC[C@]43[C@@H]65)C2)C1 [vincristine] + COc1ccc(Cl)c(Nc2nc3ccccc3nc2NS(=O)(=O)c2cccc(NC(=O)C(C)(C)N)c2)c1 [XL147] (first compound 0.0001 µM, partner dose 0.8 µM) | 102% | 149% | 156% | 104% | 157% | 388% | 88.3% | 333% | 128%
Cc1ccc(Nc2nccc(N(C)c3ccc4c(C)n(C)nc4c3)n2)cc1S(N)(=O)=O [Pazopanib] + CN(c1ncccc1CNc1nc(Nc2ccc3c(c2)CC(=O)N3)ncc1C(F)(F)F)S(C)(=O)=O [PF562271] (first compound 0.4 µM, partner dose 0.08 µM) | 141% | 53.4% | 86.9% | 121% | 74.2% | 40.3% | 96% | 93.3% | 84.2%
O=C(/C=C/c1cccnc1)NCCCCC1CCN(C(=O)c2ccccc2)CC1 + C=CCNC1=C2C[C@@H](C)C[C@H](OC)[C@H](O)[C@@H](C)/C=C(\C)[C@H](OC(N)=O)[C@@H](OC)/C=C\C=C(/C)C(=O)NC(=CC1=O)C2=O [Tanespimycin] (first compound 0.01 µM, partner dose 0.002 µM) | 94.5% | 198% | 115% | 140% | 183% | 3170% | 113% | 687% | 696%
